Among the data in article PMC11729561 are binding values, retold here.

The chains behind the UniProt entries cited, without tags or fusion partners. Residues count along the entry.
UniProt Q99523, residues 78-831: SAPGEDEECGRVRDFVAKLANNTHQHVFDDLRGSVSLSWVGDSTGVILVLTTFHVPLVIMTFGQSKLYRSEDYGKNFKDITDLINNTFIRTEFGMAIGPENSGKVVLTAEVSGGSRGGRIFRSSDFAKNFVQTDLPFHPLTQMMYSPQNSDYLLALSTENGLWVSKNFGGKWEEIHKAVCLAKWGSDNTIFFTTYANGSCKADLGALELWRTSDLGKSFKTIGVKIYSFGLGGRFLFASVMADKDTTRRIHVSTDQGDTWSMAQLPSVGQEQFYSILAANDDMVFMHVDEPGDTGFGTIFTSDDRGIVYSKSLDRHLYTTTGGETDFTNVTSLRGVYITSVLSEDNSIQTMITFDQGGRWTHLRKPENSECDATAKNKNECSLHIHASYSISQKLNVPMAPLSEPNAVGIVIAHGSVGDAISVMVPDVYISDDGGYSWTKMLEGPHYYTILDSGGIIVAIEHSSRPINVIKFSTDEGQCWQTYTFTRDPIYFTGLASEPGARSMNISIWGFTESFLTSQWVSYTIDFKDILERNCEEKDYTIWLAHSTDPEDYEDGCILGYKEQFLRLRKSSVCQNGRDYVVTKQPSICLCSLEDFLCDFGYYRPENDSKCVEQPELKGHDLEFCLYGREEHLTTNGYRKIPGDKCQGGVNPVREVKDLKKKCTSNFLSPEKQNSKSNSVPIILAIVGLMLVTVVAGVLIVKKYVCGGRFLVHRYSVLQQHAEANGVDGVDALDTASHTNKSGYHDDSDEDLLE

In the experiment the target is T1, MDGA2-GFP (full-length human MDGA2 in pEGFP-N1) (human) (UniProt Q7Z553).
T1 sequence: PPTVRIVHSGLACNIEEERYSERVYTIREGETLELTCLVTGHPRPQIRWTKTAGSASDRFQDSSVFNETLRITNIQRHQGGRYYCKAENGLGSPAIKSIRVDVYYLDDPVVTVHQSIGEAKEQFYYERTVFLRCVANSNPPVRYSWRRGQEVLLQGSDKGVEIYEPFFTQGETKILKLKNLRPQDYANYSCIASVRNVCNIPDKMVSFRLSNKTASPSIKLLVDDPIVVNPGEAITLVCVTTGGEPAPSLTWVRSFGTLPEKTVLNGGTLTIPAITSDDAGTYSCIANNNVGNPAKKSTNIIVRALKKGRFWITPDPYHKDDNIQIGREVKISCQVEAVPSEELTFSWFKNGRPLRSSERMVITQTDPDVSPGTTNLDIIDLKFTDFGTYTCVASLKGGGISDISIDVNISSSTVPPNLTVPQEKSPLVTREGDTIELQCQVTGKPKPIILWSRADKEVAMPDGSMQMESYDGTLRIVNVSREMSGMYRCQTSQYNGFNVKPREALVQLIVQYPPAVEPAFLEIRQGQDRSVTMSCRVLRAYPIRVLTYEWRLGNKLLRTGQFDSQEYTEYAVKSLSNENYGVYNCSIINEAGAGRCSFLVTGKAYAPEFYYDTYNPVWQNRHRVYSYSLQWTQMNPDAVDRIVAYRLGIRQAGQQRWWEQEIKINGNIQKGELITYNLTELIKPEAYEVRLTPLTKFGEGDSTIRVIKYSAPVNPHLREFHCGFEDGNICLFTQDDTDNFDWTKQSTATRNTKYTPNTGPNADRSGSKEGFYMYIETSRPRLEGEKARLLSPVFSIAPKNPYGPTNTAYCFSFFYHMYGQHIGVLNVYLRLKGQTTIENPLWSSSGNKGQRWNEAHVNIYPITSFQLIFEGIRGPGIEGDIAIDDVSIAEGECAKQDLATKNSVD
Nature of the experiment: affinity purification with mass spectrometry; MDGA2-GFP transiently expressed in HEK293T; membrane proteins solubilized in 1% TNEN; pulled down with an anti-GFP antibody; LC-MS/MS.

These are yes or no findings as the source states them, for the method shown. Binding seen in cells or lysates may run through a third protein. These calls come from enrichment with a bait or labelling near it, and not all partners need be listed. Sequences can lack the tags named with a protein.

In the case of “SORT1 (endogenous, HEK293T cells) (from UniProt Q99523 78-831)”, the binding entry is “binds”.
